Record: PubChem BioAssay AID493246 (Drosophila RNAi Screening Center, 2011)
The deposit covers about 21,000 reagents; below is an unselected part of those that have a named target and a result. Of all reagents, 429 (2%) got an active call. 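Values are raw and not normalised between plates; calls rest on per-plate z-scores that were not deposited.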 The numbers tell different reagents against one gene apart. Not stated in the record: the amount of reagent, the time to read-out.

- Purpose: 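Identify essential fly genes by loss of cell viability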 (primary screen)
- System: Drosophila Kc and S2R+ cells
- Reagent: long dsRNA against Drosophila genes
- Read-out: 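Cell number per well after knock-down, printed as raw plate values; calls were based on per-plate z-scores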
- Direction: Kc cell number and S2R+ cell number: higher = more cells remaining
- Rule for the call: 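Counted as a hit if cell number falls by a z-score of at least 3 within its plate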

Gene	reagent	Kc cell number, rep 1	Kc cell number, rep 2	S2R+ cell number, rep 1	S2R+ cell number, rep 2	call
CG10680	1	1.56e6	1.69e6	1.21e6	3.10e5	inactive
CG6340	1	1.19e6	1.33e6	9.33e5	1.05e6	inactive
ana	1	1.38e6	1.40e6	1.07e6	1.18e6	inactive
CG16826	1	1.64e6	1.68e6	1.33e6	1.50e6	inactive
CG4049	1	1.52e6	1.54e6	1.21e6	1.26e6	inactive
CG17234	1	1.45e6	1.50e6	1.03e6	1.18e6	inactive
Ibf2	1	1.69e6	1.73e6	1.36e6	1.56e6	inactive
Nepl5	1	1.25e6	1.36e6	6.50e5	7.22e5	inactive
CG31525	1	1.38e6	1.49e6	1.12e6	1.27e6	inactive
pdm2	1	1.56e6	1.60e6	1.16e6	1.30e6	inactive
pdm2	2	1.55e6	1.56e6	1.10e6	1.24e6	inactive
pdm2	3	1.41e6	1.51e6	1.23e6	1.38e6	inactive
Mcm7	1	1.31e6	1.45e6	1.18e6	1.04e6	inactive
CG6974	1	1.23e6	1.33e6	1.16e6	1.25e6	inactive

Laid out differently: results already given
CG4049
- Kc cell number, rep 1: 1.52e6
- Kc cell number, rep 2: 1.54e6
- S2R+ cell number, rep 1: 1.21e6
- S2R+ cell number, rep 2: 1.26e6
- call: inactive

CG17234
- Kc cell number, rep 1: 1.45e6
- Kc cell number, rep 2: 1.50e6
- S2R+ cell number, rep 1: 1.03e6
- S2R+ cell number, rep 2: 1.18e6
- call: inactive

Ibf2
- Kc cell number, rep 1: 1.69e6
- Kc cell number, rep 2: 1.73e6
- S2R+ cell number, rep 1: 1.36e6
- S2R+ cell number, rep 2: 1.56e6
- call: inactive

Continued.
Gene	reagent	Kc cell number, rep 1	Kc cell number, rep 2	S2R+ cell number, rep 1	S2R+ cell number, rep 2	call
CG32163	1	1.23e6	1.22e6	1.00e6	1.11e6	inactive
lectin-24A	1	1.67e6	1.63e6	1.13e6	1.29e6	inactive
CG31862	1	1.67e6	1.74e6	1.14e6	1.26e6	inactive
CG6293	1	1.56e6	1.58e6	1.34e6	1.42e6	inactive
Nha2	1	1.40e6	1.45e6	1.01e6	1.10e6	inactive
Nha2	2	1.39e6	1.63e6	9.08e5	1.05e6	inactive
Nha2	3	1.52e6	1.47e6	1.00e6	1.07e6	inactive
sosie	1	1.57e6	1.51e6	9.71e5	1.10e6	inactive
CG5255	1	1.29e6	1.42e6	1.09e6	1.23e6	inactive
SoxN	1	1.52e6	1.54e6	1.07e6	1.18e6	inactive
